Laboratory results from patent publication US20140058103A1, “Inhibitors of PI3K-Delta and Methods of Their Use and Manufacture” (Exelixis, Inc., priority 2010, published 2014).

The chains behind the UniProt entries cited, without tags or fusion partners.
UniProt O00329, whole entry: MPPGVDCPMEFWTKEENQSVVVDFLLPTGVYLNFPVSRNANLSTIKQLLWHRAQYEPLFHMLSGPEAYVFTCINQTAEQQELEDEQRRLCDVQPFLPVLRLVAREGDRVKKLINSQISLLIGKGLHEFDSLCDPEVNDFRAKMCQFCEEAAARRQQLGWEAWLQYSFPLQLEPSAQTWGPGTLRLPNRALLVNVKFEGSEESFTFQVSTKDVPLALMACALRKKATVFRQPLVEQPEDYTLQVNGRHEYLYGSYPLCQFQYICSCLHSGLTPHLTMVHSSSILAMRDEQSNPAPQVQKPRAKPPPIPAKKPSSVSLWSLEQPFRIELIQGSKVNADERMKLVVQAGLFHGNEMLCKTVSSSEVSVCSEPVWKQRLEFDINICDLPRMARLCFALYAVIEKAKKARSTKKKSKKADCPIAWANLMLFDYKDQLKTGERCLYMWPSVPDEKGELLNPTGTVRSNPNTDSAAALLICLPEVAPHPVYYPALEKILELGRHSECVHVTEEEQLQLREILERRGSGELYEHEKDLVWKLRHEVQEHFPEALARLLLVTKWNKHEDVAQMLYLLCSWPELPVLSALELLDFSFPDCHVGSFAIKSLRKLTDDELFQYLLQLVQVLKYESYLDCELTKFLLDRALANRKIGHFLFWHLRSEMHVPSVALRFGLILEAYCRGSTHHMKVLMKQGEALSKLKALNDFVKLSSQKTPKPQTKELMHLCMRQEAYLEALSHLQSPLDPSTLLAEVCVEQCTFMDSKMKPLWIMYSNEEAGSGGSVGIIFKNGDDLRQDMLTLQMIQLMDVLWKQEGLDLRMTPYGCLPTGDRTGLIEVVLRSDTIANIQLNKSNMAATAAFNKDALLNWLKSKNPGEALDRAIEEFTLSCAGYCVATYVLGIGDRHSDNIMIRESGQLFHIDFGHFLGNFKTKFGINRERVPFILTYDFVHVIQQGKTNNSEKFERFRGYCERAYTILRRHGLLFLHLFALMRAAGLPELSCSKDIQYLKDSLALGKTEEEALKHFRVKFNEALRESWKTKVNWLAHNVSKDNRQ
UniProt P27986, whole entry partner: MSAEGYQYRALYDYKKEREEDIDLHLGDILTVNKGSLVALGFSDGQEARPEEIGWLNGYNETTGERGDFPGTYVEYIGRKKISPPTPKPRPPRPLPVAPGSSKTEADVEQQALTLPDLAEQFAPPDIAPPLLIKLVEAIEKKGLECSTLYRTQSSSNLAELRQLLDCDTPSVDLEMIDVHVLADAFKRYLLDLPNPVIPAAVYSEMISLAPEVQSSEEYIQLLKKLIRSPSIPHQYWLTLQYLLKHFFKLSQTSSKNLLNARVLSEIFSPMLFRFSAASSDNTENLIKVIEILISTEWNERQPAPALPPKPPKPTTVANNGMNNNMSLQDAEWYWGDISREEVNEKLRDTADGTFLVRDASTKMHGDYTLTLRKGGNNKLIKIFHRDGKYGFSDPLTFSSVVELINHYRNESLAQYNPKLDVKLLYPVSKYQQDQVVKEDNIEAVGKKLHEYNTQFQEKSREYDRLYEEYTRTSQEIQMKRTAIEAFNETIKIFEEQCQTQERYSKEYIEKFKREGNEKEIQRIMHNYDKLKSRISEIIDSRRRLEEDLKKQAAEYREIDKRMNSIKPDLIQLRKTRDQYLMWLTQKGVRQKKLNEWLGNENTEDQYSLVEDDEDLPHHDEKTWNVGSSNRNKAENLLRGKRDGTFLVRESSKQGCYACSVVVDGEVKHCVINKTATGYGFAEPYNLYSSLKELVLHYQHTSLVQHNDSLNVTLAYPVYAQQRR

target: PI3K delta (Homo sapiens, UniProt O00329); assay: Luciferase-coupled chemiluminescence kinase assay (ATP consumption, KinaseGlo); conditions: read-out: PI3K Delta Activity IC50

Compound | IC50
Cc1cccc(-n2ncc3c2CCN(c2ncnc4c2nc(C(=O)NCC2CC2)n4C)C3)c1 | 500 to 1500 nM
Cc1cccc(C)c1-n1ncc2c1CCN(c1ncnc3c1nc(C(=O)NCC1CC1)n3C)C2 | 500 to 1500 nM
Cn1c(-c2cn[nH]c2)nc2c(N3CCC(n4c(=O)[nH]c5ccccc54)CC3)ncnc21 | < 50 nM
CN1CCN(c2cccc3c2[nH]c(=O)n3C2CCN(c3ncnc4c3nc(C(=O)NCC3CC3)n4C)CC2)CC1 | 50 to 250 nM
CCn1c(-c2cn[nH]c2)nc2c(N3CCC(n4c(=O)[nH]c5ccccc54)CC3)ncnc21 | < 50 nM
CC1CN(c2ncnc3c2nc(C(=O)NCC2CC2)n3C)CCC1n1c(=O)[nH]c2ccccc21 (stereo not shown) | 50 to 250 nM
Cc1c(-c2nc3c(N4CCC(n5c(=O)[nH]c6c(F)cccc65)CC4)ncnc3n2C)cnn1C | < 50 nM
Cc1ccc(-n2ncc3c2CCN(c2ncnc4c2nc(C(=O)NCC2CC2)n4C)C3)c(C)c1 | 500 to 1500 nM
CN(C)c1ccc(-c2nc3c(N4CCC(n5c(=O)[nH]c6ccccc65)CC4)ncnc3n2C)cn1 | < 50 nM
COc1cccc2c1[nH]c(=O)n2C1CCN(c2ncnc3c2nc(C(=O)NCC2CC2)n3C)CC1 | 50 to 250 nM
COc1ccc(S(=O)(=O)N2CCN(c3ncnc4c3nc(-c3cnn(C)c3)n4C)CC2)cc1 | 500 to 1500 nM
Cc1ccccc1-n1ncc2c1CCN(c1ncnc3c1nc(C(=O)NCC1CC1)n3C)C2 | 500 to 1500 nM
CCCn1cc(-c2nc3c(N4CCC(n5c(=O)[nH]c6ccccc65)CC4)ncnc3n2CC)cn1 | < 50 nM

The match of structure and compound is tentative.
